{"source": "the supplement of paper PMC8728848", "test_in_all_cases": "glycan array binding signal (z-score within array); higher = stronger binding", "details_in_all_cases": "glycan notation: IUPAC condensed, linker removed", "key": {"Gal(a1-3)Gal": {"target": "Gal(a1-3)Gal", "summary_of_the_method": "(§1)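 Arrays were curated from the Consortium for Functional Glycomics database, 3228 in total, and kept only where the protein sequence was available. Binding is expressed as a within-array Z-score. This score was averaged across arrays of the same protein sequence at different concentrations or buffers and across linkers, and negative values can be read as non-binding.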"}, "Gal(a1-3)Gal(b1-3)GlcNAc": {"target": "Gal(a1-3)Gal(b1-3)GlcNAc", "summary_of_the_method": "as §1"}, "[1]": {"target": "Gal(a1-3)Gal(b1-3)GlcNAc(b1-2)Man", "summary_of_the_method": "as §1"}, "[2]": {"target": "Gal(a1-3)Gal(b1-3)GlcNAc(b1-2)Man(a1-3)[Gal(a1-3)Gal(b1-3)GlcNAc(b1-2)Man(a1-6)]Man(b1-4)GlcNAc(b1-4)GlcNAc", "summary_of_the_method": "as §1"}, "[3]": {"target": "Gal(a1-3)Gal(b1-3)GlcNAc(b1-3)GalNAc", "summary_of_the_method": "as §1"}, "[4]": {"target": "Gal(a1-3)Gal(b1-3)GlcNAc(b1-6)GalNAc", "summary_of_the_method": "as §1"}, "[5]": {"target": "Gal(a1-3)Gal(b1-3)[Fuc(a1-4)]GlcNAc(b1-2)Man(a1-3)[Gal(a1-3)Gal(b1-3)[Fuc(a1-4)]GlcNAc(b1-2)Man(a1-6)]Man(b1-4)GlcNAc(b1-4)GlcNAc", "summary_of_the_method": "as §1"}, "Gal(a1-3)Gal(b1-4)Glc": {"target": "Gal(a1-3)Gal(b1-4)Glc", "summary_of_the_method": "as §1"}, "Gal(a1-3)Gal(b1-4)GlcNAc": {"target": "Gal(a1-3)Gal(b1-4)GlcNAc", "summary_of_the_method": "as §1"}, "[6]": {"target": "Gal(a1-3)Gal(b1-4)GlcNAc(b1-2)Man", "summary_of_the_method": "as §1"}, "[7]": {"target": "Gal(a1-3)Gal(b1-4)GlcNAc(b1-2)Man(a1-3)[Gal(a1-3)Gal(b1-4)GlcNAc(b1-2)Man(a1-6)]Man(b1-4)GlcNAc(b1-4)GlcNAc", "summary_of_the_method": "as §1"}, "[8]": {"target": "Gal(a1-3)Gal(b1-4)GlcNAc(b1-3)GalNAc", "summary_of_the_method": "as §1"}, "[9]": {"target": "Gal(a1-3)Gal(b1-4)GlcNAc(b1-6)GalNAc", "summary_of_the_method": "as §1"}, "[10]": {"target": "Gal(a1-3)Gal(b1-4)[Fuc(a1-3)]GlcNAc", "summary_of_the_method": "as §1"}, "[11]": {"target": "Gal(a1-3)Gal(b1-4)[Fuc(a1-3)]GlcNAc(b1-2)Man(a1-3)[Gal(a1-3)Gal(b1-4)[Fuc(a1-3)]GlcNAc(b1-2)Man(a1-6)]Man(b1-4)GlcNAc(b1-4)GlcNAc", "summary_of_the_method": "as §1"}, "Gal(a1-3)GalNAc": {"target": "Gal(a1-3)GalNAc", "summary_of_the_method": "as §1"}, "[12]": {"target": "Gal(a1-3)[Gal(a1-4)]Gal(b1-4)GlcNAc", "summary_of_the_method": "as §1"}, "[13]": {"target": "Gal(a1-4)Gal(b1-3)GlcNAc(b1-2)Man(a1-3)[Gal(a1-4)Gal(b1-3)GlcNAc(b1-2)Man(a1-6)]Man(b1-4)GlcNAc(b1-4)GlcNAc", "summary_of_the_method": "as §1"}, "Gal(a1-4)Gal(b1-4)Glc": {"target": "Gal(a1-4)Gal(b1-4)Glc", "summary_of_the_method": "as §1"}, "Gal(a1-4)Gal(b1-4)GlcNAc": {"target": "Gal(a1-4)Gal(b1-4)GlcNAc", "summary_of_the_method": "as §1"}, "[14]": {"target": "Gal(a1-4)Gal(b1-4)GlcNAc(b1-2)Man(a1-3)[Gal(a1-4)Gal(b1-4)GlcNAc(b1-2)Man(a1-6)]Man(b1-4)GlcNAc(b1-4)GlcNAc", "summary_of_the_method": "as §1"}, "[15]": {"target": "Gal(a1-4)Gal(b1-4)GlcNAc(b1-3)Gal(b1-4)Glc", "summary_of_the_method": "as §1"}, "Gal(a1-4)GlcNAc": {"target": "Gal(a1-4)GlcNAc", "summary_of_the_method": "as §1"}, "Gal(a1-6)Glc": {"target": "Gal(a1-6)Glc", "summary_of_the_method": "as §1"}, "Gal(b1-2)Gal": {"target": "Gal(b1-2)Gal", "summary_of_the_method": "as §1"}, "Gal(b1-3)Gal": {"target": "Gal(b1-3)Gal", "summary_of_the_method": "as §1"}, "Gal(b1-3)Gal(b1-4)GlcNAc": {"target": "Gal(b1-3)Gal(b1-4)GlcNAc", "summary_of_the_method": "as §1"}, "Gal(b1-3)GalNAc": {"target": "Gal(b1-3)GalNAc", "summary_of_the_method": "as §1"}, "[16]": {"target": "Gal(b1-3)GalNAc(a1-3)[Fuc(a1-2)]Gal(b1-4)Glc", "summary_of_the_method": "as §1"}, "[17]": {"target": "Gal(b1-3)GalNAc(a1-3)[Fuc(a1-2)]Gal(b1-4)GlcNAc", "summary_of_the_method": "as §1"}, "Gal(b1-3)GalNAc(b1-3)Gal": {"target": "Gal(b1-3)GalNAc(b1-3)Gal", "summary_of_the_method": "as §1"}, "[18]": {"target": "Gal(b1-3)GalNAc(b1-3)Gal(a1-4)Gal(b1-4)Glc", "summary_of_the_method": "as §1"}, "[19]": {"target": "Gal(b1-3)GalNAc(b1-4)Gal(b1-4)Glc", "summary_of_the_method": "as §1"}, "[20]": {"target": "Gal(b1-3)GalNAc(b1-4)[Neu5Ac(a2-3)]Gal(b1-4)Glc", "summary_of_the_method": "as §1"}, "Gal(b1-3)GlcNAc": {"target": "Gal(b1-3)GlcNAc", "summary_of_the_method": "as §1"}, "[21]": {"target": "Gal(b1-3)GlcNAc(a1-3)Gal(b1-4)GlcNAc", "summary_of_the_method": "as §1"}, "[22]": {"target": "Gal(b1-3)GlcNAc(a1-6)Gal(b1-4)GlcNAc", "summary_of_the_method": "as §1"}, "Gal(b1-3)GlcNAc(b1-2)Man": {"target": "Gal(b1-3)GlcNAc(b1-2)Man", "summary_of_the_method": "as §1"}}, "note": "The other results are listed elsewhere or left out.", "data": [{"binder": "Drgal1 (Danio rerio) (protein) MAGVLIQNMSFKVGQTLTITGVPKPDSTNFAINIGHSPEDIALHMNPRFDAHGDQCTIVCNSFQSGSWCEEHRDDNFPFIQDKEFQIKITFTNEEFLVTLPDGSEIHFPNRQGSEKYKYMYFEGEVRIQGVEIK", "values": [{"measurement": "glycan array binding signal (z-score)", "setting": "Gal(a1-3)Gal", "result": 0.192}, {"measurement": "glycan array binding signal (z-score)", "setting": "Gal(a1-3)Gal(b1-3)GlcNAc", "result": -0.76}, {"measurement": "glycan array binding signal (z-score)", "setting": "[1]", "result": -0.788}, {"measurement": "glycan array binding signal (z-score)", "setting": "[2]", "result": 0.05}, {"measurement": "glycan array binding signal (z-score)", "setting": "[3]", "result": -0.439}, {"measurement": "glycan array binding signal (z-score)", "setting": "[4]", "result": -0.323}, {"measurement": "glycan array binding signal (z-score)", "setting": "[5]", "result": 0.574}, {"measurement": "glycan array binding signal (z-score)", "setting": "Gal(a1-3)Gal(b1-4)Glc", "result": -0.159}, {"measurement": "glycan array binding signal (z-score)", "setting": "Gal(a1-3)Gal(b1-4)GlcNAc", "result": -0.346}, {"measurement": "glycan array binding signal (z-score)", "setting": "[6]", "result": -0.747}, {"measurement": "glycan array binding signal (z-score)", "setting": "[7]", "result": 1.71}, {"measurement": "glycan array binding signal (z-score)", "setting": "[8]", "result": -0.48}, {"measurement": "glycan array binding signal (z-score)", "setting": "[9]", "result": -0.195}, {"measurement": "glycan array binding signal (z-score)", "setting": "[10]", "result": -0.226}, {"measurement": "glycan array binding signal (z-score)", "setting": "[11]", "result": -0.521}, {"measurement": "glycan array binding signal (z-score)", "setting": "Gal(a1-3)GalNAc", "result": 1.5}, {"measurement": "glycan array binding signal (z-score)", "setting": "[12]", "result": 1.28}, {"measurement": "glycan array binding signal (z-score)", "setting": "[13]", "result": -0.114}, {"measurement": "glycan array binding signal (z-score)", "setting": "Gal(a1-4)Gal(b1-4)Glc", "result": 0.346}, {"measurement": "glycan array binding signal (z-score)", "setting": "Gal(a1-4)Gal(b1-4)GlcNAc", "result": 0.682}, {"measurement": "glycan array binding signal (z-score)", "setting": "[14]", "result": 0.698}, {"measurement": "glycan array binding signal (z-score)", "setting": "[15]", "result": -0.121}, {"measurement": "glycan array binding signal (z-score)", "setting": "Gal(a1-4)GlcNAc", "result": -0.487}, {"measurement": "glycan array binding signal (z-score)", "setting": "Gal(a1-6)Glc", "result": -0.869}, {"measurement": "glycan array binding signal (z-score)", "setting": "Gal(b1-2)Gal", "result": -0.068}, {"measurement": "glycan array binding signal (z-score)", "setting": "Gal(b1-3)Gal", "result": -0.116}, {"measurement": "glycan array binding signal (z-score)", "setting": "Gal(b1-3)Gal(b1-4)GlcNAc", "result": -0.653}, {"measurement": "glycan array binding signal (z-score)", "setting": "Gal(b1-3)GalNAc", "result": -0.103}, {"measurement": "glycan array binding signal (z-score)", "setting": "[16]", "result": -0.485}, {"measurement": "glycan array binding signal (z-score)", "setting": "[17]", "result": -0.213}, {"measurement": "glycan array binding signal (z-score)", "setting": "Gal(b1-3)GalNAc(b1-3)Gal", "result": 0.409}, {"measurement": "glycan array binding signal (z-score)", "setting": "[18]", "result": -0.251}, {"measurement": "glycan array binding signal (z-score)", "setting": "[19]", "result": 0.161}, {"measurement": "glycan array binding signal (z-score)", "setting": "[20]", "result": 0.475}, {"measurement": "glycan array binding signal (z-score)", "setting": "Gal(b1-3)GlcNAc", "result": 0.12}, {"measurement": "glycan array binding signal (z-score)", "setting": "[21]", "result": -0.134}, {"measurement": "glycan array binding signal (z-score)", "setting": "[22]", "result": -0.225}, {"measurement": "glycan array binding signal (z-score)", "setting": "Gal(b1-3)GlcNAc(b1-2)Man", "result": 1.85}]}]}
